# Reference: article PMC6051343
# No constants are given. Whether binding was seen depends on the method and setting. Binding seen in cells or lysates may run through a third protein. Here binding means that the protein was enriched with, or labelled near, the bait; the list need not be complete.
# T1: Rec11–TAP (S. pombe) (UniProt Q92380)
# T1 sequence: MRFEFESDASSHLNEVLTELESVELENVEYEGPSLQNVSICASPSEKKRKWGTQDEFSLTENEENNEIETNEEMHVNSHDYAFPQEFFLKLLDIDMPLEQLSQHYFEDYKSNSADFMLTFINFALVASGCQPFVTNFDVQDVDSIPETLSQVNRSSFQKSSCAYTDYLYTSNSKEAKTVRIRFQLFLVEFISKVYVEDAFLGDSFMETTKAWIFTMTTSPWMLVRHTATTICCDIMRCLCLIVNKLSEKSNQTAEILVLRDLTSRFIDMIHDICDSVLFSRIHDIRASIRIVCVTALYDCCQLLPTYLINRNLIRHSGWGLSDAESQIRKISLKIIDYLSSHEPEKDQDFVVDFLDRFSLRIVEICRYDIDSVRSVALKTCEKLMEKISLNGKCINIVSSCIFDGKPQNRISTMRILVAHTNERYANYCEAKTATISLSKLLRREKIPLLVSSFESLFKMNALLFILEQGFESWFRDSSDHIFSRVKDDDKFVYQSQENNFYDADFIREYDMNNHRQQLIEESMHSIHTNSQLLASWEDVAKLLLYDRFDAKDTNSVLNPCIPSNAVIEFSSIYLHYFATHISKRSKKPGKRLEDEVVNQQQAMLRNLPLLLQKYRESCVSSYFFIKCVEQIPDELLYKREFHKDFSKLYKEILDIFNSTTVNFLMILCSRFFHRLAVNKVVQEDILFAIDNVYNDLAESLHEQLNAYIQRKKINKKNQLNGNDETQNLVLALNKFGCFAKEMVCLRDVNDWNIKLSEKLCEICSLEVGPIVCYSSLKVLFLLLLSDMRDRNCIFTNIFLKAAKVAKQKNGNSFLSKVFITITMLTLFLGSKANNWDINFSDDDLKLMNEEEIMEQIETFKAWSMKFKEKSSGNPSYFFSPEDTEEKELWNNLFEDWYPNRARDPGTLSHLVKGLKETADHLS
# B1: Rec8 (protein, UniProt P36626 1-561)
# chain: MFYNQDVLTKEKGGMGVIWLAATLGSKHSLRKLHKKDIMSVDIDEACDFVAFSPEPLALRLSSNLMIGVTRVWAHQYSFFHSQVSTLHLRVRKELDHFTSKPFKNIDIQNEQTNPKQLLLAEDPAFIPEVSLYDAFNLPSVDLHVDMSSFTQPKENPNISVLETLPDSTSYLINTSQNYSLRNNVSSFVYEDSRAFSTEEPLDFEFDENGDIQELTKGTINSDPSLQAASQHSNLGSVQREYNSEEQESRIHMFEIDEDVLPLPVPLQSVMDSEHNENEPRALKRRKVQKLLEPDENIELSTRTLSQWRKNYVERMIALEATKYVRRRGASSAKKKELNKFFDWESFHPLLKPWIEKLKPSNNTPSEIDDVLRNIDTSEVEVGRDVQGELGLNIPWNTSSRSNSAINSKSHSQTGSEHSTPLLDTKYRKRLPHSPSMPSRVEFLPALESSQFHETLNSELSLQLSDDFVLYKNTQEENAHLMLSMEKECANFYEYAKTAIYENNGRITFSSLLPNDLKRPVVAQAFSHLLSLATKSAFLVKQDKPYSEISVSLNLKSTDAI
# B2: Eme1 (protein, UniProt Q9C103 1-735)
# chain: MTLQSTDSAIVIDSEADVDISSSQASPSKDNIALSEHNVITVLDTPQRSTQCDSLLKSFSTPLVSGSEDVLPSPRDALNITNKKSVTDNLLLSLTSSNQSTNTNLNPSSRVEIINLNSSPPNSLSSQPKHQEFHLFHTPTIPRTTQLSSKTSSPIVIPDDNEQVASPLSKKAASLTSSPLKDFQSSPPLSTVLQKSHSLHDILLDTNDDDHFPFTQSPLTKTKSFNDALTSSSSILKPCMPSIASPTSNRLSHAPSTPNLFPNQDSSNTIDLINNRSKTSVENQERTFNLTSDVHLDSPTSPSKHSSIEPNTSQEDSFQELPSLNKLSIQSRAFKKMRLPKISRTTDTPPASTSNSNKKNLDKLKKMRKLCSRSLEPYELDSNTQRKRKRYEDSLKKSKTLDKVDSLNRKMAKELDRKNSKELQKINKVKRTKEECLSEIILLSPDDWASSWYSTVRSQLDSYNCQFVVNSNQPKDSIMWKRKVNNVFNSSTNRFELSIEHEQIEPFALLRLKCRDFIKYIEEDQADTFFHEMSEKFKGCKLILLLEGIPNYFKSLKAELNRQYAAAVNSGTRPLLFGSLSKYQNFTKEKLESEIVRFSFEHSILINTSNDEKETAQWIVSFTGDIALSRYKHFSKFSARASTTEIGHVKSADRIENSLNFMLRQILRVTPNIANAICDQFDSIPSLIHHLKTHGEESLTNVVIQSSISERNLGPVLSRRIYNTFLCKEASSDAP
# B3: Psm1 (protein, UniProt O94383 1-1228)
# chain: MGRLLRLEVENFKSYRGHQIIGPFEDFTSIIGPNGAGKSNLMDAISFVLGVKSSHLRSTNVKELIYRGKILQRDNTDFTDSSNPTTAYVKLMYELDNGEQREYKRAITPSGATEYKIDEEIVTFSEYCGSLQKENILVRARNFLVFQGDVETIASQSPLELSKLVEQISGSLEYKSEYDKSKDEQDKAVNLSAHSFNKKRGINAELRQYQEQKTEAERYQSQKEKRDSAQLVYLLWKLFHLEKSISSNMAEVTRLKADSIQLIERRDENTKEIEKLKEKEGSIRRNLLAFDRKVRKQEKLIASKRPELISIAEKALESKSNLRKIQRKAAEIEKDYSDQASTLQVLENQLTSLSAAEKEFLKDMQEKEQLKGLRLLPEDKEEYEGLRSEADKLNSNLLFKLQTLNRNIKVTSQSKDSLTSIVGDLESKIKSLHESVSSLDTERADLLAKINEKIESLELEKHDQQKKRLTYSELFHKTQELNEELQSCLQKILEASADRNESKQDAKKREALYALKRIYPEVKGRIIDLCTPTQKKYESAIAAALGKNFDAIVVETQAVAKECIDYIKEQRIGIMTFFPMDTIAASPVNQKFRGTHKGARLAIDVLNFESEYERVMISAVGNTLICDSMTVARDLSYNKRLNAKTVTLEGTVIHKTGLITGGSSNNRSAKHWDDHDFDLLTQTKDRLMHQIGEIEYQKSSCVITESDTVKLHSLESEISLLKDKYTVVSRSVEDKKKEIGHYESLIKEKQPHLSELEMELRNFVKSRDELQIQVEKVEEKIFSGFCKRIGISDIHTYDEIHRTFTQSFTQKQLEFTKQKSLLENRISFEKQRVSDTRLRLERMHKFIEKDQESIDNYEQNREALESEVATAEAELELLKEDFASENSKTEKILLAASEKKLVGKRLVSELTKLSGNITLLESEIDRYVSEWHAILRKCKLEDIDVPLREGSLTSIPIDDVSNSGDITMGEEPSEPVINFEKFGVEVDYDELDEELRNDGSESMASVLQEKLREYSEELDQMSPNLRAIERLETVETRLAKLDEEFAAARKAAKNAKERFNAVKQKRLQKFQAAFSHISEQIDPIYKELTKSPAFPLGGTAYLTLDDLDEPYLGGIKFHAMPPMKRFRDMDQLSGGEKTMAALALLFAIHSYQPSPFFVLDEIDAALDQTNVTKIANYIRQHASSGFQFVVISLKNQLFSKSEALVGIYRDQQENSSRTLSINLEGYVE
# modifications: mono-methylated on K536 and K1200 (found by mass spectrometry)
# Target: T1, Rec11–TAP (S. pombe)
# Assay: affinity purification with mass spectrometry; tandem affinity purification of Rec11–TAP (IgG Sepharose, TEV cleavage, calmodulin Sepharose) from meiotically induced S. pombe cells harvested 2.5–3.5 h after induction; IPP150 buffer (50 mM Tris-HCl pH 8.0, 150 mM NaCl, 10% glycerol, 0.1% NP-40); eluate silver stained and analysed by mass spectrometry
row,binding,Binder
1,binds,B1
2,binds,B2
3,binds,B3
